Here are results for 2 molecules from article PMC12204625.

Protein sequences, listed by entry. Tags and fused reporters are not part of them.
UniProt P36873: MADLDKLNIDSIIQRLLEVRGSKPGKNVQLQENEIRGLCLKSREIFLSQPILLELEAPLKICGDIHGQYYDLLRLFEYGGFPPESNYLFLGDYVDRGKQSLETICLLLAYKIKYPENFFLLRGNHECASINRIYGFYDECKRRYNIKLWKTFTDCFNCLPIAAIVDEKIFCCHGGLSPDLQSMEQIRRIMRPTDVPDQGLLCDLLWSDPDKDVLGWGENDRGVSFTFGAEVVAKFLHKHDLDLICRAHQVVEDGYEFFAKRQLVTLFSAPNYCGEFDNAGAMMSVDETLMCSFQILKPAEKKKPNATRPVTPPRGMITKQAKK

In the assay the target is T1, IFN alpha inducible protein 27 (IFI27) fused to a C-terminal HA tag (human) (UniProt P40305).
T1 sequence: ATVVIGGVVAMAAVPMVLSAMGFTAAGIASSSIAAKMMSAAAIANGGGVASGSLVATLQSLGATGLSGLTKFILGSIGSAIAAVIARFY
Put plainly: affinity purification with mass spectrometry; HEK-293T transfected with pCAGGS-IFI27-HA (or pCAGGS-IFI44-HA, or empty plasmid), then poly(I:C) 3000 ng/ml; lysis in NaCl 250 mM, EDTA 1 mM, 50 mM TrisHCl pH 7.5, NP-40 0.5%; anti-HA affinity resin overnight at 4 °C; washes in TBS with 0.1% SDS; elution 0.1 M glycine pH 2.4; LC-MS/MS.

No constants are given. Whether binding was seen depends on the method and setting. In cells and extracts the contact can be indirect. Here binding means that the protein was enriched with, or labelled near, the bait; the list need not be complete. Where a sequence is shown, tags or fusion partners need not be part of it.

Consider “protein phosphatase 1C (PPP1CC), gamma isoform of the phosphatase catalytic subunit, endogenous (from UniProt P36873 1-323) (enzyme)”, for which the binding entry was “binds”.

B1: TARBP2 Subunit of RISC Loading Complex (TARBP2), endogenous (protein, UniProt Q15633 1-366)
chain: MSEEEQGSGTTTGCGLPSIEQMLAANPGKTPISLLQEYGTRIGKTPVYDLLKAEGQAHQPNFTFRVTVGDTSCTGQGPSKKAAKHKAAEVALKHLKGGSMLEPALEDSSSFSPLDSSLPEDIPVFTAAAAATPVPSVVLTRSPPMELQPPVSPQQSECNPVGALQELVVQKGWRLPEYTVTQESGPAHRKEFTMTCRVERFIEIGSGTSKKLAKRNAAAKMLLRVHTVPLDARDGNEVEPDDDHFSIGVGSRLDGLRNRGPGCTWDSLRNSVGEKILSLRSCSLGSLGALGPACCRVLSELSEEQAFHVSYLDIEELSLSGLCQCLVELSTQPATVCHGSATTREAARGEAARRALQYLKIMAGSK
Regarding B1, the binding entry is “binds”.
